The target of the test is Rad21 cohesin subunit (Drosophila (endogenous in Kc cells)). Nature of the test: co-IP; DNase I-treated nuclear extract from cultured Kc cells (4 mg protein per mL) immunoprecipitated with guinea pig anti-Rad21 serum or preimmune serum (10 micrograms of serum per 100 microliters of extract); western blots with anti-Pc-RJ (1:2000) and anti-Ph (1:1200). (In western blotting, separated proteins are transferred to a membrane and probed.)

These are yes or no findings as the source states them, for the method shown. Binding seen in cells or lysates may run through a third protein. Binding can be weak; no strength is given.

This passage reports binding results from paper PMC3688520.

B1: Polycomb (Pc) PRC1 subunit (protein, UniProt P26017 1-390)
chain: MTGRGKGSKGKLGRDNATDDPVDLVYAAEKIIQKRVKKGVVEYRVKWKGWNQRYNTWEPEVNILDRRLIDIYEQTNKSSGTPSKRGIKKKEKEPDPEPESEEDEYTFTENDVDTHQATTSSATHDKESKKEKKHHHHHHHHHHIKSERNSGRRSESPLTHHHHHHHHESKRQRIDHSSSSNSSFTHNSFVPEPDSNSSSSEDQPLIGTKRKAEVLKESGKIGVTIKTSPDGPTIKPQPTQQVTPSQQQPFQDQQQAEKIASEAATQLKSEQQATPLATEAINTTPAESGAEEEEVANEEGNQQAPQVPSENNNIPKPCNNLAINQKQPLTPLSPRALPPRFWLPAKCNISNRVVITDVTVNLETVTIRECKTERGFFRERDMKGDSSPVA
B1: the binding result is listed as “binds”.
